According to PubChem BioAssay AID493014 (National Center for Advancing Translational Sciences (NCATS), 2011):
The other results are listed elsewhere or left out. Shown are side measurements of this screen, not its main read-out; they come without a call. Compounds called inactive in the main read-out are mostly missing here. Words in brackets tell the shape of the fitted curve; partial curves, single points and poor fits give uncertain potencies.

Test: qHTS Assay to Find Inhibitors of Chronic Active B-Cell Receptor Signaling
Details: ABC-DLBCL IkBa-CBG/CBR reporter, luminescence ratio (green luciferase fused to IkBa over red control in TMD8 lymphoma cells), 4 h
Summary of the method: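 Doxycycline induced both beetle luciferases in TMD8 lymphoma cells; IKK-driven degradation limits the IkappaBalpha-fused green signal, while red luminescence normalises for cell number and nonspecific effects. Compounds tested up to 46 uM, 4 hrs.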

[1] = measured here: CBR red luminescence, cell number
[2] = measured here: IkBa-CBG green luminescence

Row | Structure (SMILES) | AC50 [1] | AC50 [2]
1 | Cc1ccc(S(=O)(=O)N2[C@@H](c3ccc(C(C)(C)C)cc3)C(C(=O)O)=CC[C@H]2c2ccc(Cl)cc2)cc1 | 1.3 µM [rising, full curve] | –
2 | CN(CCNC(=O)C1CCC(=O)N(Cc2ccc(Cl)cc2)C1)CCc1ccccc1 (configuration not stated) | 10 µM [falling, partial curve] | –
3 | COc1cc2cc(-c3ccc(O)cc3O)nc(C)c2cc1OC | 3.16 µM [rising, single point] | 3.55 µM [falling, single point]
4 | Cc1ccc(Cl)cc1NC(=O)CN1CCN(S(=O)(=O)N2CCOCC2)CC1 | 4.47 µM [rising, single point] | –
5 | Cc1cc(C)c2nc(SCC#N)cc(C)c2c1 | 35.5 µM [rising, single point] | –
6 | CC1CC(=O)NN=C1c1ccc(N(C)C)c([N+](=O)[O-])c1 (configuration not stated) | 4.11 µM [rising, full curve, poor fit] | –
7 | COc1ccccc1-n1cnc2cc(C(=O)NCc3ccco3)ccc21 | 13 µM [falling, partial curve] | –
8 | CCN(CC)c1ccc2c(-c3ccc(S(=O)(=O)O)cc3S(=O)(=O)[O-])c3ccc(=[N+](CC)CC)cc-3oc2c1 | – | 15.8 µM [rising, partial curve, poor fit]
9 | Cc1occc1C(=O)Nc1cccc(C(=O)O)c1 | 32.6 µM [falling, single point] | –
10 | O=C(Nc1ccccc1Cl)c1csc(-c2cccnc2)n1 | 35.5 µM [falling, single point] | –
11 | COc1ccccc1-n1c(-c2ccc(NS(C)(=O)=O)cc2)n[nH]c1=S | 0.058 µM [falling, full curve, poor fit] | –
12 | CCCOc1ccccc1C1NC(=O)NC(C)=C1C(=O)OCc1ccccc1 (configuration not stated) | 4.11 µM [falling, single point] | –
13 | Cc1ccccc1C(=O)NC(=S)Nc1ccccc1C(=O)O | 10 µM [falling, partial curve] | –
14 | O=C(O)c1cccnc1NC1CCCC1 | 32.6 µM [rising, single point] | –
15 | COc1ccc(N=Cc2nc(-c3ccco3)oc2O)cc1 | 2.06 µM [falling, full curve, poor fit] | –
16 | CSc1nc(C=Nc2ccccc2Cl)c(O)n1Cc1cccc(Cl)c1 | 2.82 µM [falling, partial curve, poor fit] | –
17 | COCC1CCCCN1C(=O)C1CCN(c2nc(-c3ccccc3)nc3c2CCC3)CC1 (configuration not stated) | 11.2 µM [falling, single point] | –
18 | Nc1c(C(=O)NCc2ccco2)nnn1CC(=O)Nc1ccc2c(c1)OCO2 | 14.1 µM [falling, partial curve, poor fit] | –
19 | NC(=O)c1sc2cc(C(F)(F)F)cnc2c1-c1ccccc1 | 5.62 µM [rising, single point] | –
20 | COCCn1c(SCC(=O)/C=C2\N(C)c3ccccc3C2(C)C)nnc1-c1ccncc1 | 10.3 µM [falling, partial curve, poor fit] | –
21 | O=C(/C=C/c1cccc([N+](=O)[O-])c1)N1CCN(C(=O)c2ccco2)CC1 | 20.6 µM [rising, partial curve, poor fit] | –

2 records drawn at random from those above:
Row | Structure (SMILES) | AC50 [1] | AC50 [2]
17 | COCC1CCCCN1C(=O)C1CCN(c2nc(-c3ccccc3)nc3c2CCC3)CC1 (configuration not stated) | 11.2 µM [falling, single point] | –
18 | Nc1c(C(=O)NCc2ccco2)nnn1CC(=O)Nc1ccc2c(c1)OCO2 | 14.1 µM [falling, partial curve, poor fit] | –

(listing goes on)

Row | Structure (SMILES) | AC50 [1] | AC50 [2]
22 | Cc1ccccc1C(=O)NNC(=O)CSc1nc2ccccc2c(=O)[nH]1 | 11.2 µM [falling, partial curve] | –
23 | O=C(CN1C(=O)C2CC=CCC2C1=O)OCC(=O)c1ccc(Cl)c([N+](=O)[O-])c1 (configuration not stated) | 25.1 µM [falling, single point] | –
24 | O=C(NC(=S)Nc1ccccc1N1CCCCC1)c1ccc(F)cc1 | 15.8 µM [rising, single point] | –
25 | O=C(Cc1ccccc1)Nc1ccc2[nH]ncc2c1 | 22.4 µM [falling, partial curve, poor fit] | –
26 | c1cc(CNc2ccc3c(c2)OCO3)ccn1 | 0.411 µM [rising, full curve, poor fit] | –
27 | C=CCc1cc(/C=C2/NC(=O)N(CC(=O)OC)C2=O)cc(OC)c1O | 10 µM [falling, partial curve, poor fit] | –
28 | O=C(c1csc2c1CCCC2)N1CCN(c2ncccn2)CC1 | 3.66 µM [rising, partial curve, poor fit] | –
29 | COC(=O)c1ccccc1NC(=O)c1ccc(-c2ccccc2F)o1 | 0.058 µM [falling, full curve] | –
30 | CC(C)c1cc(C(=O)NCCc2ccccc2)no1 | 2.24 µM [falling, full curve] | –
31 | c1ccc2c(c1)OCCc1c-2[nH]c2ccccc12 | 3.55 µM [rising, partial curve, poor fit] | –
32 | COc1ccc(N2C(=O)CSC2c2cccc(OC)c2OC)cc1 (configuration not stated) | 16.4 µM [rising, partial curve, poor fit] | –
33 | N#C/C(=C\c1ccccc1[N+](=O)[O-])C(=O)NC1CCCCC1 | 20 µM [falling, partial curve, poor fit] | –
34 | CC(=O)Oc1ccc2nc(-c3ccc(Br)o3)oc(=O)c2c1 | 0.355 µM [falling, full curve, poor fit] | –
35 | CCc1c(C)nc(SCC(=O)Nc2ccc3c(c2)OCCO3)[nH]c1=O | 20 µM [falling, single point] | –
36 | CCN(C[C@H]1N[C@@](Cc2ccccc2)(C(=O)OC)[C@H]2C(=O)N(C)C(=O)[C@@H]12)C(=O)Nc1ccc(Cl)cc1 | 29.1 µM [rising, single point] | –
37 | c1ccc2c(c1)[nH]c1nc(SCCN3CCOCC3)nnc12 | 29.1 µM [falling, single point] | –
38 | CCOC(=O)c1c(NC(=O)CS(=O)(=O)c2cn(CC)c3ccccc23)sc2c1CCCCC2 | 11.6 µM [rising, partial curve, poor fit] | –
39 | CCOC(=O)c1sc(-c2cccc(C(F)(F)F)c2)nc1O | 0.794 µM [rising, full curve, poor fit] | –
40 | COc1ccc(Nc2nc(C(=O)NCc3ccco3)cs2)cc1 | 11.2 µM [falling, partial curve] | –
41 | O=C(CN1C(=O)COc2ccccc21)Nc1ccccc1F | 3.98 µM [falling, partial curve, poor fit] | –
